In ChEMBL document CHEMBL3769309, “Design, synthesis and biological evaluation of bisthiazole-based trifluoromethyl ketone derivatives as potent HDAC inhibitors with improved cellular efficacy” (Eur J Med Chem, 2016):
pIC50: −log10 of the molar value.

The chains behind the UniProt entries cited, without tags or fusion partners. Where a name states a change or a piece, a line headed by the entry shows the natural chain unless it says otherwise.
UniProt Q13547, whole entry: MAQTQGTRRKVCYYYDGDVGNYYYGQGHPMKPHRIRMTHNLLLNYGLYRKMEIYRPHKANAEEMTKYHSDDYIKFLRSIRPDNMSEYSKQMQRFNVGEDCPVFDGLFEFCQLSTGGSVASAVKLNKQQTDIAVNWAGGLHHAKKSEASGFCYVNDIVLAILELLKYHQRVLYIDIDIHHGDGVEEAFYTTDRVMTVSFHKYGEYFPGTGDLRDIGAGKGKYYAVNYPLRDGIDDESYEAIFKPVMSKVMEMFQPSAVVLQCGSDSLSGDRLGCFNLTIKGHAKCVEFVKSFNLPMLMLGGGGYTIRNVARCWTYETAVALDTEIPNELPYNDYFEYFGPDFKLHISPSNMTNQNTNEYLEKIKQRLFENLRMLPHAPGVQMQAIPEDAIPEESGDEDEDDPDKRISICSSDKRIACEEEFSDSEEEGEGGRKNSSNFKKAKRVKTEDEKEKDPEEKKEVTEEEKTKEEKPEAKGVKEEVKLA
UniProt P56524: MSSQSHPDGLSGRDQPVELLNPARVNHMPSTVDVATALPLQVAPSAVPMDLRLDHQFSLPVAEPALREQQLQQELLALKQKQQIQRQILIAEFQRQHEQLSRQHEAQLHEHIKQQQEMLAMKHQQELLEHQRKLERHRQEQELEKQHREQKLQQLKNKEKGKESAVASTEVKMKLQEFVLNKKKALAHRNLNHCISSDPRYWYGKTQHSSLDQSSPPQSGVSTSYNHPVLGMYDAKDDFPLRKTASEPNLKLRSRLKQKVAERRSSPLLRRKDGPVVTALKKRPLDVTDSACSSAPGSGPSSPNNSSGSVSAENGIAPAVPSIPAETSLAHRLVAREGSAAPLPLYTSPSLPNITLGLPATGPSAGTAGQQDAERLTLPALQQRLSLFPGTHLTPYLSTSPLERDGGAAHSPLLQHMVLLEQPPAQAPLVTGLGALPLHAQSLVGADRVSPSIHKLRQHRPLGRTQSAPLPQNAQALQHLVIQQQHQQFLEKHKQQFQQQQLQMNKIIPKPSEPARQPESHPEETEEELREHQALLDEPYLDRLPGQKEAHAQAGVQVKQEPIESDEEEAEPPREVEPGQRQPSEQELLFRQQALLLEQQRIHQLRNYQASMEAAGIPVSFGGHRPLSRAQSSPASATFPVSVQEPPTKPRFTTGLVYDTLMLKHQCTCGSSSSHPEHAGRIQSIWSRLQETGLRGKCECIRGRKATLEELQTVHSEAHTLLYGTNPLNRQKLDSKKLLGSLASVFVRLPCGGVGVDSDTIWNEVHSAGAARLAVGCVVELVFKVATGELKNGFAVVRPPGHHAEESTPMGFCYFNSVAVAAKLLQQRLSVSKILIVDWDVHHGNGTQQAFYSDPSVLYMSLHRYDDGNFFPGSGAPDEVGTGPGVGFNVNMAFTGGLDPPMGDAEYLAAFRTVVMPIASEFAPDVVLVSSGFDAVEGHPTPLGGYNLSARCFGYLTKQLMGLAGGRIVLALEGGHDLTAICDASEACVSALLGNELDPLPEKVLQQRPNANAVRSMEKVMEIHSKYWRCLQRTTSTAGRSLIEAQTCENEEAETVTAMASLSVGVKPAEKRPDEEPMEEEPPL

Assays:
Histone deacetylase 1 = Histone deacetylase 1 (Homo sapiens, UniProt Q13547); assay: Inhibition of full length His6-tagged GST-fused recombinant human HDAC1 expressed in High5 insect cells using Ac-Lys-Tyr-Lys (e-acetyl)-AMC as substrate after 24 hrs by fluorescence assay; format: cell-based
Histone deacetylase 4 = Histone deacetylase 4 (Homo sapiens, UniProt P56524); assay: Inhibition of full length His6-tagged GST-fused recombinant human HDAC4 expressed in High5 insect cells using Ac-Lys-Tyr-Lys (e-acetyl)-AMC as substrate after 24 hrs by fluorescence assay; format: cell-based

Row | pIC50 (Histone deacetylase 1) | pIC50 (Histone deacetylase 4) | Compound
1 | 6.84 | 6.73 | CC(C)Cc1sc(-c2nccs2)nc1C(=O)NCCCCC(=O)NO
2 |  | 6.80 | O=C(CCCCNC(=O)c1nc(-c2nccs2)sc1C1CC1)NO [BISTHIANOSTAT]
